In patent US7115728:
No constants are given. Whether binding was seen depends on the method and setting. Some results given as binding are weak or reduced against the parent protein; the word gives no strength.

The chains behind the UniProt entries cited, without tags or fusion partners. Where a name states a change or a piece, a line headed by the entry shows the natural chain unless it says otherwise.
UniProt P37231: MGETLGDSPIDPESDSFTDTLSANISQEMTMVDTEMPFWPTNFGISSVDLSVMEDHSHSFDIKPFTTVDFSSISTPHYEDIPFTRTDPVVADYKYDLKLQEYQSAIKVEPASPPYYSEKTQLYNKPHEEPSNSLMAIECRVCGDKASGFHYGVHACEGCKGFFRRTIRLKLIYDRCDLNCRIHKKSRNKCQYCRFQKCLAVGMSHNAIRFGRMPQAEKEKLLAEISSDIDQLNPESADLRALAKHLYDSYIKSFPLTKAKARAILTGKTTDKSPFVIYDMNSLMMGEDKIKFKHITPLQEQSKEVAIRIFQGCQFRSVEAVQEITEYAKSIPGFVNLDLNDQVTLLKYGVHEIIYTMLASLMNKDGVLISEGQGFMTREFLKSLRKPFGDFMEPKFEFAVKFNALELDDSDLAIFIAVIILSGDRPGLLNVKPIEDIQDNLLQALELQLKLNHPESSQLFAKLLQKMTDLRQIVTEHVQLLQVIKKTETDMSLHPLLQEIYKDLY

Experiments:
mRXRβ (mouse) [1] = target: T1, mRXRβ (mouse) (UniProt P28704); assay: co-operative binding to PPRE (gel retardation)
T1 sequence (looked up): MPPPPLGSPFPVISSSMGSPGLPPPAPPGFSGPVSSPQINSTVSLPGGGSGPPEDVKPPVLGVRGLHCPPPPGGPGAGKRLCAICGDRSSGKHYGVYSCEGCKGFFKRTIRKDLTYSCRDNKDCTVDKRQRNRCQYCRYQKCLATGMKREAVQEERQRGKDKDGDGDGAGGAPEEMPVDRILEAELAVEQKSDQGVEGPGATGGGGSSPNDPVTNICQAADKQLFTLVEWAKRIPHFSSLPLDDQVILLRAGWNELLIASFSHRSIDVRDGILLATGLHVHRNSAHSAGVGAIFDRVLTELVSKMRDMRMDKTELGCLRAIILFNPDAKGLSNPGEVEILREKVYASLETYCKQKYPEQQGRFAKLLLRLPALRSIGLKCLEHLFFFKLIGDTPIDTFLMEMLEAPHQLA

mRXRγ (mouse) [2] = target: T2, mRXRγ (mouse) (UniProt P28705); assay: co-operative binding to PPRE (gel retardation)
T2 sequence (looked up): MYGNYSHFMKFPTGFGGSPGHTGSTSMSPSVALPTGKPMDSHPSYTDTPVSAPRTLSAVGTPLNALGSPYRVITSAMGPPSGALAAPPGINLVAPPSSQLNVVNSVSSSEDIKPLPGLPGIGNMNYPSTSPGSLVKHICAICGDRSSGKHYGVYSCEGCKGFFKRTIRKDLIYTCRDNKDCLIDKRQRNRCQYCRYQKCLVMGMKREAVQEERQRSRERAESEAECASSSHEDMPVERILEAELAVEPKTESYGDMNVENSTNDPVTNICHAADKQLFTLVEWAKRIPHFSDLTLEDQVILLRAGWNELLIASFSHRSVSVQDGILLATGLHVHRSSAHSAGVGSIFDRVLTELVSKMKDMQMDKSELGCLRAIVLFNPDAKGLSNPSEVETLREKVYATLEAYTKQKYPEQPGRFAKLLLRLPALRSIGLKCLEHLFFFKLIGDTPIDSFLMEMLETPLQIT

mRXRβ (mouse) [3] = target: T1, mRXRβ (mouse); assay: gel retardation assay with PPRE oligonucleotides
mRXRγ (mouse) [4] = target: T2, mRXRγ (mouse); assay: gel retardation assay with PPRE oligonucleotides

Measured: binding

human peroxisome proliferator activated receptor γ (hPPARγ) (from UniProt P37231 29-505)
binds: all assays above
